Results: patent publication US6844318B2 (priority 2000, dated 2005)
Some peptides are written in HELM: one residue between dots, names in brackets for other building blocks, links after the first $.

Test: general procedure: Fmoc solid-phase peptide synthesis; Fmoc-Leu-Wang resin; HBTU (SPPS); PyBop or BOP with DIEA for doxorubicin coupling
Conditions: analytical HPLC on Metachem Monochrom C18 reverse phase column (50×4.6 mm); for final purity (method not given): late stage modification step; for crude HPLC purity: whole synthesis

| Substance | final purity (method not given) | crude HPLC purity (scale 0.6 mmol) | crude HPLC purity (scale 0.25 mmol) |
| --- | --- | --- | --- |
| H2NCH2CH2N(CH2CH2)2NCH2C(═O)-P-L-G-L-L-Dox | 90% pure | – | – |
| PEPTIDE1{[ac].P.L.G.L.[Dox]}$$$$V2.0 | – | 85% | – |
| acetyl-P-L-G-Hof-Orn-L-Dox | 95% pure | – | 90% |
| acetyl-P-L-G-L-Y-L-Dox | – | – | 80% |
